In article PMC6499206, “Quantification of Volatile Metabolites Derived From Garlic (Allium sativum) in Human Urine” (Frontiers in Nutrition, 2019):
Read-outs that look alike come from different tables or passages of the source.

Key:
[1] = Determination of LOD and LOQ in synthetic urine (DIN 32645 calibration line method)
[2] = design: method as in PMID 27275838; details: cited from earlier work
[3] = synthetic urine, absolute amount

For `C=CCSC` [AMS, allyl methyl sulfide], the LOD [1] was 1.6 ng, the LOQ [1] was 7.6 ng and the LOD [1, 3] was 1.6 ng. The LOQ [1, 3] was 7.6 ng and the odor activity [2] was “garlic-like aroma”.

For `C=CCS(C)(=O)=O` [AMSO2, allyl methyl sulfone], the LOD [1] was 22.4 ng, the LOQ [1] was 78.6 ng and the LOD [1, 3] was 22.4 ng. For the same compound, the LOQ [1, 3] was 78.6 ng and the odor activity [2] was “neither AMSO nor AMSO2 are odor-active”.

`C=CC[S+](C)[O-]` (stereo not drawn) [AMSO, allyl methyl sulfoxide] gave an LOD [1] of 22.0 ng, an LOQ [1] of 77.4 ng and an LOD [1, 3] of 22.0 ng. The LOQ [1, 3] was 77.4 ng and the odor activity [2] was “neither AMSO nor AMSO2 are odor-active”.
